No constants are given. Whether binding was seen depends on the method and setting. Some binding calls cover weakened binding; strength is not graded here. Sequences can lack the tags named with a protein.
How the values were obtained:
[1] = molecular target: human PD-1 monomer (human) (UniProt Q15116); experiment: ELISA, coated human PD-1 monomer, HRP anti-mouse IgG1 Fc
[2] = molecular target: human PD-1 monomer (human) (UniProt Q15116); experiment: ELISA on PD-1 monomer (FIG. 1)

Amino acid sequences for entries named in this document (tags omitted). Residues count along the entry.
UniProt Q15116, residues 25-167: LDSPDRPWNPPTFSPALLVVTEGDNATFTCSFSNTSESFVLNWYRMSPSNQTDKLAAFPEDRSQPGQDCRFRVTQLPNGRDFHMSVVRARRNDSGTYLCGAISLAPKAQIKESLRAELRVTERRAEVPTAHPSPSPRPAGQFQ

B1: anti-PD-1 scFv-Fc clone 18 (scFv linked to murine Fc) (Fc fusion, not shown: a dimerising Fc or GST)
chain: QSVLTQPPSVSGAPGQRVTISCTGSSSNIGAGYAVNWYQLLPGTAPKLLISTNNNRPSGVPDRFSGSQFGASASLAITGLQAEDEADYYCQSYDSSLSGVIFGGGTKLTVLGGGGGSGGGGSGGGGSEVQLVQSGAEVKKPGASVKVSCKVSGYTLTELSMHWVRQAPGKGLEWMGGFDPEDGETIYAQKFQGRVTMTEDTSTDTAYMELSSLRSEDTAVYYCARAYYGFDQWGQGTLVTVSS
- binding [1]: binds
- binding [2]: binds

Source: patent US20180127502A1
